This is a selection; strong and weak results do not stand in their true shares.

Protein sequences, listed by entry. Tags and fused reporters are not part of them. Lines headed by an entry give the natural chain unless they say otherwise; changes in a name come on top.
UniProt P52948: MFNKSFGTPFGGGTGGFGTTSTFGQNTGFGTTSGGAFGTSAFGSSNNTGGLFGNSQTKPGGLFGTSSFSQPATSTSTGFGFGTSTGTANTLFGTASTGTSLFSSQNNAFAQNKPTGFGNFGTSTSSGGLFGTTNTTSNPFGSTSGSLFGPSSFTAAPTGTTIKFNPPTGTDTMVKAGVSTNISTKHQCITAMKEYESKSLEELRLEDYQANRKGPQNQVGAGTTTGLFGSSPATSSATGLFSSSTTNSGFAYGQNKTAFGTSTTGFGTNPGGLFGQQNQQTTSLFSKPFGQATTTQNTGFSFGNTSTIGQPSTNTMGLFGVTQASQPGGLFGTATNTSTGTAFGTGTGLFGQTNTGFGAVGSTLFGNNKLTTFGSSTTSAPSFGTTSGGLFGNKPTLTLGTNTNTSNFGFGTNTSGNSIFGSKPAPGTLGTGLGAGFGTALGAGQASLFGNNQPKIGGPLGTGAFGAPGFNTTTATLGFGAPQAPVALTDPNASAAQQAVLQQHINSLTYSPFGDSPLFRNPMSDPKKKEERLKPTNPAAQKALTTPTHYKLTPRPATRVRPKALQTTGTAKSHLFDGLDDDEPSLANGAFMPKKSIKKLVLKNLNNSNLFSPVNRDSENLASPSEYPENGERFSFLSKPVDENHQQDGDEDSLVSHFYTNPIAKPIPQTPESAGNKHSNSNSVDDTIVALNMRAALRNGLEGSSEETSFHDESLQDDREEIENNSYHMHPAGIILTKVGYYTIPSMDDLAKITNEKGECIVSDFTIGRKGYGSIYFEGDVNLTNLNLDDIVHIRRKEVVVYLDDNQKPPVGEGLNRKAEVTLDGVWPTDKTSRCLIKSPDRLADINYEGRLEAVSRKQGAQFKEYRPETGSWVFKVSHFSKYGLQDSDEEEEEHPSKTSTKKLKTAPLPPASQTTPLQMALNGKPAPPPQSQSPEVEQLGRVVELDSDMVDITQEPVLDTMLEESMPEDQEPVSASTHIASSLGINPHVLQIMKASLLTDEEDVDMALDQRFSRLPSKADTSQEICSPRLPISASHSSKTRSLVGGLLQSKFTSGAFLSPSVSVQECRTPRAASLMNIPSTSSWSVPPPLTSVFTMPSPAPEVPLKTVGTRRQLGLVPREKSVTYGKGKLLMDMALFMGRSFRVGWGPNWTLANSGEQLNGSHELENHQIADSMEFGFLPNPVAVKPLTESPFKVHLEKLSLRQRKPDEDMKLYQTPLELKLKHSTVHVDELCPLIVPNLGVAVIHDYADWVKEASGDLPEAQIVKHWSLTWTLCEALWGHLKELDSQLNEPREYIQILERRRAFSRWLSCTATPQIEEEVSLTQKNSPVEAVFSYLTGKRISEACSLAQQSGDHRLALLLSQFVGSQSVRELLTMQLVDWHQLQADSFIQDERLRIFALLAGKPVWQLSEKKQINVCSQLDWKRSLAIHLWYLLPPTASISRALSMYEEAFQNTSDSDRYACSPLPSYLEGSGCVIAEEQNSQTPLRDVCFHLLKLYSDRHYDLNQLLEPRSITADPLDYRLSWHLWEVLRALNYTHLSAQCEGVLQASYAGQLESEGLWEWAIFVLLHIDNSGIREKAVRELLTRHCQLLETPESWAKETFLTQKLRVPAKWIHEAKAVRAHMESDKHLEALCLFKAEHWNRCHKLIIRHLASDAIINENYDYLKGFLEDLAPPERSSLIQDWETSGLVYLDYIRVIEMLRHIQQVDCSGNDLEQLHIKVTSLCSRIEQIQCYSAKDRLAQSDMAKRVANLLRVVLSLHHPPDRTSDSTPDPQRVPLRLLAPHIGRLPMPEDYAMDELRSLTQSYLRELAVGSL
UniProt P55795: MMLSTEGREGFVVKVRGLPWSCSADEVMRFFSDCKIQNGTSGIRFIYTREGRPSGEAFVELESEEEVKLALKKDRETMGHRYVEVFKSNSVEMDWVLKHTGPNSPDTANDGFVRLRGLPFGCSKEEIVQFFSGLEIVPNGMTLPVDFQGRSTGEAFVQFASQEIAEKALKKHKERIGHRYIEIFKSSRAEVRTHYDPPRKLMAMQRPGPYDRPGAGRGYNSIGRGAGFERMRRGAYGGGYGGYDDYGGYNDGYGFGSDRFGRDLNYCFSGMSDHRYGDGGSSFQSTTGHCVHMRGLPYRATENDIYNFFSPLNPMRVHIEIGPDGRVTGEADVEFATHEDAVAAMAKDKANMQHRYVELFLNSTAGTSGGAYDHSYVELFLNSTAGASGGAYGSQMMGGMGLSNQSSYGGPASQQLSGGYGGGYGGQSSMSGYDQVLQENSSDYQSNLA
UniProt P60468, whole entry: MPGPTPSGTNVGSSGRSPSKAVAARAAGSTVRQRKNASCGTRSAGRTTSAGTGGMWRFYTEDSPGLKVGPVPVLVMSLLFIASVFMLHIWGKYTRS
UniProt P55060: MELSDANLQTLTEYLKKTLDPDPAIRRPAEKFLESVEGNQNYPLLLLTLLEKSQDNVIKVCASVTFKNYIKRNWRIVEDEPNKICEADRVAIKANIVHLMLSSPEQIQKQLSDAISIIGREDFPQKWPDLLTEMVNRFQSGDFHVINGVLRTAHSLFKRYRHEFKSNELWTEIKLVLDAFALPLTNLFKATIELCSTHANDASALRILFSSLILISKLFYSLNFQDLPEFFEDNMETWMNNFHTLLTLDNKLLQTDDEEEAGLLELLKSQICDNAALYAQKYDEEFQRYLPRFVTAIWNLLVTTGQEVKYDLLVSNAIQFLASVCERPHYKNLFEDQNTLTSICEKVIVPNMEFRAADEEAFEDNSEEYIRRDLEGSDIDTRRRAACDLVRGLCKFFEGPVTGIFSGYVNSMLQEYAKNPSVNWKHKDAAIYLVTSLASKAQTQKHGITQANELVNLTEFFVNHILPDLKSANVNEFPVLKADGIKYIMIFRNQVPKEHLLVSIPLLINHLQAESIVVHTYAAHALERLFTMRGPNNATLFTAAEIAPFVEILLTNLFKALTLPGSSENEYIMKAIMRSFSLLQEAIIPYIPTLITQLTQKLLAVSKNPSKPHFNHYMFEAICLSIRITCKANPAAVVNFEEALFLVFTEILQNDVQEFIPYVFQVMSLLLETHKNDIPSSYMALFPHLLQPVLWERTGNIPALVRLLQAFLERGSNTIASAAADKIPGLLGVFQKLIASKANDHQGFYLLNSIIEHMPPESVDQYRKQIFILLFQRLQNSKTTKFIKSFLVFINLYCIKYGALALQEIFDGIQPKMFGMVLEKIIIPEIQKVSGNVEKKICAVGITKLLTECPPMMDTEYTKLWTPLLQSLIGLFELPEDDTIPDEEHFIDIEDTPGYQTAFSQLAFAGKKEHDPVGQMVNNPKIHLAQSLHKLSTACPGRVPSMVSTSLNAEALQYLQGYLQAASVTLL
UniProt P61163, whole entry, looked up: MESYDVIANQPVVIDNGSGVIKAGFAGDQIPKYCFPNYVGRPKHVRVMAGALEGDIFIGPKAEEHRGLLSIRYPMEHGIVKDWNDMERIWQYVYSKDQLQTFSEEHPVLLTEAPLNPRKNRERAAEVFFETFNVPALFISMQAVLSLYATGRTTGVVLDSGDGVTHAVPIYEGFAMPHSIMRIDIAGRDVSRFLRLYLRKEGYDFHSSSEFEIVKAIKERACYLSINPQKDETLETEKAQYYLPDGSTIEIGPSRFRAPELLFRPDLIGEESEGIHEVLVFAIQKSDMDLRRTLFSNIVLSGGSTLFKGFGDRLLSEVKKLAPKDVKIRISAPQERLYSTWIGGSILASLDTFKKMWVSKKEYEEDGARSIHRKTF
UniProt P54886: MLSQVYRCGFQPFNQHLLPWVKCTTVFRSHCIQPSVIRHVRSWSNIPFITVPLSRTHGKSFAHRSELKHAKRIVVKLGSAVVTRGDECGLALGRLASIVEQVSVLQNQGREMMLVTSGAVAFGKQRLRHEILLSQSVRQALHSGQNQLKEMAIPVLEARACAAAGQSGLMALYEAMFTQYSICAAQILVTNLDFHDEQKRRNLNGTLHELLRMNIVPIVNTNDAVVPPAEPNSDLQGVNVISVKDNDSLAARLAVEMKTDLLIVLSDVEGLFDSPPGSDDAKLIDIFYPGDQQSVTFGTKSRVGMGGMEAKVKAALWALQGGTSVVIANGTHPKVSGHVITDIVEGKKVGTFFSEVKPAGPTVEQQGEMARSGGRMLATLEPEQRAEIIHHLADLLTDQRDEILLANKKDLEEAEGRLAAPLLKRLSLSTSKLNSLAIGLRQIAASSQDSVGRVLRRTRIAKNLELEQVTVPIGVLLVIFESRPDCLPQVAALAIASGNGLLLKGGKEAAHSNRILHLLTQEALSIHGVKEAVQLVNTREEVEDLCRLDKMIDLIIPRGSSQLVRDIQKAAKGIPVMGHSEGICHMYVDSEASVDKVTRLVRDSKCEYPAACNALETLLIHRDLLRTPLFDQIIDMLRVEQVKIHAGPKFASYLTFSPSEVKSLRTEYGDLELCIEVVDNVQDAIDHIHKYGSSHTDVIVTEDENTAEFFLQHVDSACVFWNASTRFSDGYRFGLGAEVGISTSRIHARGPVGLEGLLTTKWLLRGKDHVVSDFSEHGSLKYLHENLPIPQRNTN
UniProt P51858: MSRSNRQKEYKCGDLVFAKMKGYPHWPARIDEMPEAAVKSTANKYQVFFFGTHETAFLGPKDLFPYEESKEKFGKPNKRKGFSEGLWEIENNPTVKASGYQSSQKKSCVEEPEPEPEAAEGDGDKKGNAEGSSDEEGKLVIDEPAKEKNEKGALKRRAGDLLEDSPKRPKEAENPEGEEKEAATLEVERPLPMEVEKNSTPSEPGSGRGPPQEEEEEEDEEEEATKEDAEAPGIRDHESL
UniProt P54136: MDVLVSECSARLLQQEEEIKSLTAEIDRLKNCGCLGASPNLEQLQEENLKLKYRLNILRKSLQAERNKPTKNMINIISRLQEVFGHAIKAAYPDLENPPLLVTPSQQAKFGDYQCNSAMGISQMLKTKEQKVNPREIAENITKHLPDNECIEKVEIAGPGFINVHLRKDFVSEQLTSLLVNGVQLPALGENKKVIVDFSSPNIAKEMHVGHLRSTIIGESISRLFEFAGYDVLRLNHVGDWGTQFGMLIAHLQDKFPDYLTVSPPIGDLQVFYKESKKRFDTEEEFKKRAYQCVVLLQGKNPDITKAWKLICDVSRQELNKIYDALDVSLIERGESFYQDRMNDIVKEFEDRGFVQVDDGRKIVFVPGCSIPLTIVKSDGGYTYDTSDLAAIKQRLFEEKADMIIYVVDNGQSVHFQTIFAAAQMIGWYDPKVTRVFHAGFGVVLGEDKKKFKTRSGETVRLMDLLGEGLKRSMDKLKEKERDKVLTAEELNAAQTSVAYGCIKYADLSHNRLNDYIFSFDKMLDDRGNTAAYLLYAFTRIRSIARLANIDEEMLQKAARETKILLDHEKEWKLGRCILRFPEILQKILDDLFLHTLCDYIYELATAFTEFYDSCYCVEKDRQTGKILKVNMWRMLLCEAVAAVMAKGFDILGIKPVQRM
UniProt P62195, whole entry: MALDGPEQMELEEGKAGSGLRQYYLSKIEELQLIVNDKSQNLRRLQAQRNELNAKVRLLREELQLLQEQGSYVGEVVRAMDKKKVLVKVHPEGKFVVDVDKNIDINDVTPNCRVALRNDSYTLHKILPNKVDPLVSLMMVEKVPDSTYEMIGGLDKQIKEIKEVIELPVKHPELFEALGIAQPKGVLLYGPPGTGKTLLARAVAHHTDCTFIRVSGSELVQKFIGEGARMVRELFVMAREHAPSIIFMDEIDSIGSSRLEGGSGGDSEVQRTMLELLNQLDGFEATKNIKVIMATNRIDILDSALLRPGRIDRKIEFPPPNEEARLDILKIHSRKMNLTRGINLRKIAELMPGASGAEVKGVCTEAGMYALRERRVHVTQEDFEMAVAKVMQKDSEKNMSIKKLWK
UniProt P52298: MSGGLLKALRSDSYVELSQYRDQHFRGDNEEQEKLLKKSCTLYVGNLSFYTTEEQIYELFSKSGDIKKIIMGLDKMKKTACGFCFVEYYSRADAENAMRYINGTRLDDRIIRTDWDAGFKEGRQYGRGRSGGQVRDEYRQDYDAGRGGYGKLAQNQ
UniProt P61081: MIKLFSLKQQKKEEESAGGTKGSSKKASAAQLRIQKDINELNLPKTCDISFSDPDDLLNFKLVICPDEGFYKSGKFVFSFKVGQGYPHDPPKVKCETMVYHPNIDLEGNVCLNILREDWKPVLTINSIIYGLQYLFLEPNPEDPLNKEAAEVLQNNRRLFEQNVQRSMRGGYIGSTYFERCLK
UniProt P51991: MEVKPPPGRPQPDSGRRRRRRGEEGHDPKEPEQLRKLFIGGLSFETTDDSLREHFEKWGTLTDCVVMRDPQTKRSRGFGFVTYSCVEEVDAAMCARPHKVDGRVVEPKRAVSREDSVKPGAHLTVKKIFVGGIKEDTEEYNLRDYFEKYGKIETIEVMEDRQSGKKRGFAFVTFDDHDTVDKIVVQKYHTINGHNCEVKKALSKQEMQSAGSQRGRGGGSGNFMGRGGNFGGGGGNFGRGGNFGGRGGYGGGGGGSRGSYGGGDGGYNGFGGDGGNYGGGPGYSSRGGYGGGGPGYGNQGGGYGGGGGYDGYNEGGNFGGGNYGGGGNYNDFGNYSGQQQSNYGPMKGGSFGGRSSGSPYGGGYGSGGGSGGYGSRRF

Compound in this test: COC(=O)C#Cc1ccccc1 [methyl 3-phenylpropiolate]
As to the kind of experiment: log2 ratio of iodoacetamide-alkyne labeling of the cysteine site, DMSO over compound (competition); higher = stronger covalent engagement of the cysteine by the compound, active = 1 or more. To be noted: 500 µM; treatment time 1 h; system: HEK293T cell lysate. Summed up: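 For each cysteine, the log2 competition ratio is mean control-channel reporter intensity over mean compound-channel reporter intensity. HEK293T lysate (2 mg/mL) was exposed to vehicle or electrophile (500 µM, 1 h, ambient temperature), labelled with iodoacetamide alkyne (1 h), clicked to sCIP-TMT reagents, digested overnight with trypsin at 37 °C, streptavidin-enriched and analysed by Orbitrap Eclipse LC-MS/MS with FAIMS and FragPipe. Cysteines quantified in only one of three replicates, each with duplicate channels, were excluded.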
For UniProt P62241_C71, the “log2 ratio of iodoacetamide-alkyne labeling” value (from here on “log2 ratio”) was inactive: 0.335.

As for NUP98 C1312 (UniProt P52948), the “log2 ratio” value was inactive: 0.426.

In the case of UniProt P59998_C21, the “log2 ratio” value was inactive: 0.337.

Take HNRNPH2 C122 (UniProt P55795): the “log2 ratio” value is inactive: -0.123.

For the target SEC61B C39 (UniProt P60468), the “log2 ratio” value is inactive: 0.555.

MARS C287 (UniProt P56192): the “log2 ratio” value was inactive: -0.00466.

For KPNA1 C210 (UniProt P52294), the “log2 ratio” value was inactive: 0.586.

Regarding CSE1L C387 (UniProt P55060), the “log2 ratio” value was inactive: 0.716.

Turning to UniProt P61163_C34, the “log2 ratio” value is inactive: 0.205.

Regarding ACLY C20 (UniProt P53396), the “log2 ratio” value is inactive: 0.357.

As for BLM C361 (UniProt P54132), the “log2 ratio” value is inactive: 0.519.

ALDH18A1 C606 (UniProt P54886): the “log2 ratio” value was inactive: 0.31.

On to SEC24C C886 (UniProt P53992), for which the “log2 ratio” value was inactive: -0.483.

As to UniProt P60866_C36, the “log2 ratio” value was inactive: 0.113.

On to THOP1 C18 (UniProt P52888), for which the “log2 ratio” value is inactive: 0.539.

As to LAMB2 C47 (UniProt P55268), the “log2 ratio” value was inactive: 0.575.

As for UniProt P62244_C72, the “log2 ratio” value is inactive: 0.177.

As for UniProt P62244_C30, the “log2 ratio” value was inactive: 0.0206.

As to UniProt P55196_C324, the “log2 ratio” value was inactive: 0.605.

For HDGF C108 (UniProt P51858), the “log2 ratio” value was inactive: 0.398.

Regarding PGGT1B C369 (UniProt P53609), the “log2 ratio” value is inactive: 0.515.

With PEX3 C283 (UniProt P56589), the “log2 ratio” value is inactive: 0.0605.

Turning to UniProt P60709_C217, the “log2 ratio” value was inactive: 0.0537.

On to RARS C32 (UniProt P54136), for which the “log2 ratio” value is inactive: 0.605.

Take PPP5C C404 (UniProt P53041): the “log2 ratio” value is inactive: 0.194.

In the case of EIF5 C59 (UniProt P55010), the “log2 ratio” value was inactive: 0.0949.

For the target CASP7 C7 (UniProt P55210), the “log2 ratio” value is inactive: 0.0191.

Consider COPA C380 (UniProt P53621), for which the “log2 ratio” value is inactive: 0.304.

Turning to UniProt P60763_C157, the “log2 ratio” value was inactive: -0.0139.

Take UniProt P60891_C91: the “log2 ratio” value is inactive: -0.381.

Consider UniProt P62195_C209, for which the “log2 ratio” value is inactive: -0.131.

As to SRP54 C136 (UniProt P61011), the “log2 ratio” value was inactive: 0.0185.

In the case of NCBP2 C81 (UniProt P52298), the “log2 ratio” value is inactive: 0.0517.

Turning to UniProt P61081_C47, the “log2 ratio” value is inactive: 0.248.

Regarding PLK1 C212 (UniProt P53350), the “log2 ratio” value is inactive: 0.74.

CLCN3 C733 (UniProt P51790): the “log2 ratio” value was inactive: -0.0337.

Turning to HNRNPA3 C85 (UniProt P51991), the “log2 ratio” value was inactive: 0.23.

These data come from the supplement of paper PMC11006884.
